The text below walks through data of paper PMC7552397, “Crystal structure of caspase-11 CARD provides insights into caspase-11 activation” (Cell Discovery, 2020).

No constants are given. Whether binding was seen depends on the method and setting. Sequences can lack the tags named with a protein.

For assay [1], the target named is MBP-tagged caspase-11 CARD, residues 11–59 (WT-CARD^aa11–59) (murine) (UniProt P70343). Briefly: SEC; gel filtration on Superdex 200, 250 mM NaCl, 10 mM Tris-HCl pH 8.0; MBP-tagged proteins, 1 mg each where told; both purified. Background: Size exclusion chromatography separates by hydrodynamic size, large species first.
The target in assay [2] is MBP-tagged caspase-11 CARD, residues 11–101, V13A L14A L17A V21A (VLLV-CARD^aa11–101) (murine) (UniProt P70343). The experiment in a line: SEC-MALS; DAWN HELEOS 8+, room temperature, samples at 1 mg/mL in 250 mM NaCl, 10 mM Tris-HCl pH 8.0; ASTRA analysis; both purified.
Assay [3] shares this target. Briefly: SEC; gel filtration on Superdex 200, 250 mM NaCl, 10 mM Tris-HCl pH 8.0; MBP-tagged proteins, 1 mg each where told; both purified.
Assay [4] has as its target MBP-tagged caspase-11 CARD, residues 1–59 (WT-CARD^aa1–59) (murine) (UniProt P70343). The description is as above.

B1: MBP-tagged caspase-11 CARD, residues 11–59 (WT-CARD^aa11–59) (domain or fragment, UniProt P70343 11-59)
chain: LKVLEQLGKEVLTEYLEKLVQSNVLKLKEEDKQKFNNAERSDKRWVFVD
B1: the binding result in assay [1] is “no binding (tested: 1 mg)”.

B2: MBP-tagged caspase-11 CARD, residues 11–101, V13A L14A L17A V21A (VLLV-CARD^aa11–101) (domain or fragment, UniProt P70343 11-101)
chain: LKAAEQAGKEALTEYLEKLVQSNVLKLKEEDKQKFNNAERSDKRWVFVDAMKKKHSKVGEMLLQTFFSVDPGSHHGEANLEMEEPEESLNT
On to B2, for which the binding entry in assay [2] is given as “no binding (tested: 1 mg/mL)”; in assay [3] it was “no binding”.

B3: MBP-tagged caspase-11 CARD, residues 1–59 (WT-CARD^aa1–59) (domain or fragment, UniProt P70343 1-59)
chain: MAENKHPDKPLKVLEQLGKEVLTEYLEKLVQSNVLKLKEEDKQKFNNAERSDKRWVFVD
Take B3: the binding entry in assay [4] was “no binding (tested: 1 mg)”.
